Among the data in publication PMC4081007 are binding values, retold here.

Chains of the proteins cited; added tags and fusions are not shown.
UniProt Q9CW03: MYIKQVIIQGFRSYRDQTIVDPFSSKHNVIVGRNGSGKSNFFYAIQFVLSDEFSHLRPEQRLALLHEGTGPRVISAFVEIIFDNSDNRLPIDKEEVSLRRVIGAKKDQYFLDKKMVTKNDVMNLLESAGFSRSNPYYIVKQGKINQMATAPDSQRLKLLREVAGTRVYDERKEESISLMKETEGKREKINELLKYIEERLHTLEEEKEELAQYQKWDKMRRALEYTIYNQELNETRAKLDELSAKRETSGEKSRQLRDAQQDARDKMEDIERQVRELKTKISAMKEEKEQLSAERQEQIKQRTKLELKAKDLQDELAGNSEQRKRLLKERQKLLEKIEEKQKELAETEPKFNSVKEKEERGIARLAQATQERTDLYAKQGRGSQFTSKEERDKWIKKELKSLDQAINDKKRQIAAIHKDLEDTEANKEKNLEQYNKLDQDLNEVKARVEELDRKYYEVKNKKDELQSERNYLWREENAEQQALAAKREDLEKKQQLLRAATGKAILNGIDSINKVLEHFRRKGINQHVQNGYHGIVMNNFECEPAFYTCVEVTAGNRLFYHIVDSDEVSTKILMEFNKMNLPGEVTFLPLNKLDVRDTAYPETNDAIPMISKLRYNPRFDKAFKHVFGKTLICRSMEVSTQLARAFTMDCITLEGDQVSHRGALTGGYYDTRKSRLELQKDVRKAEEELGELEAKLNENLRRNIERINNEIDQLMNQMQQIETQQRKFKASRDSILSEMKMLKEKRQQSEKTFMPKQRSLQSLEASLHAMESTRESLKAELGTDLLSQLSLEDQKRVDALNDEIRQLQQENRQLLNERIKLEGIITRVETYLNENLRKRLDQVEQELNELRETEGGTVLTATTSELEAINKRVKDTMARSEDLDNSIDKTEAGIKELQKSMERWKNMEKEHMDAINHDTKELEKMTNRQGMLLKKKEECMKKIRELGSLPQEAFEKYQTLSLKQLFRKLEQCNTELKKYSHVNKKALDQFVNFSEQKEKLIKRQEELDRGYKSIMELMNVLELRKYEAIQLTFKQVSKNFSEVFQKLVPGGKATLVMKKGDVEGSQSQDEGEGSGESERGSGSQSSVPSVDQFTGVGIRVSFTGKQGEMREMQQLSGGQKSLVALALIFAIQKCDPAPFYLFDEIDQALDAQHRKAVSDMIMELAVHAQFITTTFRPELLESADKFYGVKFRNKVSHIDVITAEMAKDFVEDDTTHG

These are yes or no findings as the source states them, for the method shown. Binding seen in cells or lysates may run through a third protein. Some entries that bind do so weakly or less than the wild type.

This experiment deals with SMC3 (mouse (endogenous in germ cells)) (UniProt Q9CW03). Briefly: co-IP; Dynabead Co-IP kit; 4 ug SMC3 antibody (Abcam ab9263) or IgG control antibody covalently linked per mg of beads; germ cell protein extracts from 8 week old Stag3+/- and Stag3-/- mice; blots of the eluate.

B1: RAD21 (protein, UniProt Q61550 1-635)
chain: MFYAHFVLSKRGPLAKIWLAAHWDKKLTKAHVFECNLESSVESIISPKVKMALRTSGHLLLGVVRIYHRKAKYLLADCNEAFIKIKMAFRPGVVDLPEENREAAYNAITLPEEFHDFDQPLPDLDDIDVAQQFSLNQSRVEEITMREEVGNISILQENDFGDFGMDDREIMREGSAFEDDDMLVSTSASNLLLEPEQSTSNLNEKMNHLEYEDQYKDDNFGEGNDGGILDDKLISNNDGGIFDDPPALSEAGVMLPEQPAHDDMDEDDNGSLGGPDSPDSVDPVEPMPTMTDQTTLVPNEEEAFALEPIDITVKETKAKRKRKLIVDSVKELDSKTIRAQLSDYSDIVTTLDLAPPTKKLMMWKETGGVEKLFFLPAQPLWNNRLLKLFTRCLTPLVPEDLRKRRKGGEADNLDEFLKEFENPEVPREEQQPQQQQPQPQRDVIDEPIIEEPSRLQDSVMEASRTTIEESAMPPPPPQGVKRKAGQIDPEPSIPPQQVEQMEIPPVELPPEEPPNICQLIPELELLPEKEKEKEKEKEEEEEEEDEDASGGDQDQEERRWNKRTQQMLHGLQRALAKTGAESISLLELCRNTNRKQAAAKFYSFLVLKKQQAIELTQEEPYSDIIATPGPRFHII
As for B1, the binding entry is “binds”.
